Experimental data as given in US7238491.
These are yes or no findings as the source states them, for the method shown. In cells and extracts the contact can be indirect. Some results given as binding are weak or reduced against the parent protein; the word gives no strength. Tags and fused reporters may be left off the sequences shown.

The chains behind the UniProt entries cited, without tags or fusion partners. Where a name states a change or a piece, a line headed by the entry shows the natural chain unless it says otherwise.
UniProt O75469: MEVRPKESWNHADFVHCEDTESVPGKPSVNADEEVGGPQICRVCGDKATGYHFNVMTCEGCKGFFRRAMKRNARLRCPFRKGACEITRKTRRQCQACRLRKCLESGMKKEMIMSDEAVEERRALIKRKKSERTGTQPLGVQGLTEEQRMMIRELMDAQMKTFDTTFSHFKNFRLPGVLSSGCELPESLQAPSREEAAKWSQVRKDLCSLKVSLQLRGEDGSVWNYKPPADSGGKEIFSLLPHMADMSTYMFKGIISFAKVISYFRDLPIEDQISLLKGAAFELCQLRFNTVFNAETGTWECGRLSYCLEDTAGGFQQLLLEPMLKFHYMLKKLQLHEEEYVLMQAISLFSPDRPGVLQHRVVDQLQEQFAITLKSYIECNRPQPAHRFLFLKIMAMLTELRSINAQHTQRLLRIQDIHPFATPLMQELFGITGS
UniProt P19793: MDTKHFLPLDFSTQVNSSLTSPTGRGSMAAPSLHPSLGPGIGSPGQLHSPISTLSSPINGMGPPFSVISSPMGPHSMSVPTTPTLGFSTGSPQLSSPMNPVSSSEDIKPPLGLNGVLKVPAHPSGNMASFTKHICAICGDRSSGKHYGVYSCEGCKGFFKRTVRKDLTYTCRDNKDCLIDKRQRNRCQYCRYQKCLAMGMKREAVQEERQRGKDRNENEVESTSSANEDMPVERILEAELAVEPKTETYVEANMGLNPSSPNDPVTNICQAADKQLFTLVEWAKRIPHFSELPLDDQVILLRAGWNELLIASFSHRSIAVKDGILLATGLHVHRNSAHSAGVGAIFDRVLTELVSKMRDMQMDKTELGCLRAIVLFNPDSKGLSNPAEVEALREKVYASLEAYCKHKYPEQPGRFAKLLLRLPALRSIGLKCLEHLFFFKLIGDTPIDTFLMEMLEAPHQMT

Target: T1, His6-PXR (polyhistidine-tagged human PXR amino acids 130-434) (human) (UniProt O75469)
T1 sequence: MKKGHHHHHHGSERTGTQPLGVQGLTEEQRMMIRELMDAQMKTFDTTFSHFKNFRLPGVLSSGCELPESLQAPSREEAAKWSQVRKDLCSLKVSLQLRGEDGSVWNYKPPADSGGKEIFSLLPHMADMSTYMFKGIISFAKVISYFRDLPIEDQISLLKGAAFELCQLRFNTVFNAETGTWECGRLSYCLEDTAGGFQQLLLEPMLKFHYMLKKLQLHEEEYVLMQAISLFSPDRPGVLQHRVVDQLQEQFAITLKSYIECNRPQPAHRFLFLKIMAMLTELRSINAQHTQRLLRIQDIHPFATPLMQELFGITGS
Assay: co-expression in E. coli and co-purification on Ni chelation resin (only PXR is His-tagged), then size exclusion

binding: binds
Substance: RXRα amino acids 225-462 (co-expressed with His6-PXR) (from UniProt P19793 225-462) (receptor)
